# From PubChem BioAssay AID1508600 (Functional Genomics Laboratory (NCATS/FGL), 2020)
# Out of some 53,000 sequences screened, about 3,700 (7%) were called active.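 The calls were made as follows: active = gene knockdowns whose robust z-score for IL-1 alpha signal is at least 2 or at most -2, so actives lie on both sides; inactive = the rest.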 The list shows a part of the results.
# Test: Components of the Cytosolic LPS Sensing Pathway: Gene Identification via Genome-wide siRNA Screen;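 also: robust z of the log signal after scaling to non-targeting control siRNA wells of the plate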
# Settings: RAW264.7 macrophages, IL-1a HTRF, actives lie on both sides, screened at 100 nM (by protocol), cells primed 5 h with Pam3CSK4 first
# Procedure, shortened: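 Using IL-1a HTRF as read-out, the screen measured release from RAW264.7 cells after 48h siRNA knockdown (100 nM), 5 h Pam3CSK4 priming and 24 h cytosolic LipidA. Values were expressed relative to negative-control wells as robust z-scores.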
row,Sequence,z-score
1,GGUCUCAGAGCUACAUCCCTT against Plekha2,inactive: -0.206
2,CCAAAGACAUCUCACACAGTT against Tgfb1,inactive: -1.2
3,GGACGUACUCCGGAGCUUUTT against Mal2,inactive: 1.65
4,GUAUUUCCAGUAUUACUUGTT against AI467606,inactive: -0.0923
5,GGUGGAUAAAGCUUAAAUATT against V1rg10,inactive: -0.258
6,CCUGUCCUACCAAAGUCUUTT against Tmem126a,inactive: -1.81
7,GAAUGUCUGAGCAAGGAGGTT against Arpp21,inactive: 0.227
8,GGAUGUUACUUAAUGACUATT against Zfp160,inactive: -0.513
9,GCUCUGUUCUCCAAACUGCTT against Pyy,inactive: 0.119
10,GGUAUCCUCUUUUUUAACCTT against Exosc9,inactive: -0.849
11,GCCGGAUAGACCAAUUGGATT against Nlk,inactive: -0.27
12,GGAAGAAAUAGAUGAGAAUTT against Tnmd,inactive: 0.245
13,GGCCGUCACUGCCAAUAGUTT against Dnah2,inactive: 0.684
14,GGGAUACCUCAUUUUUUCUTT against Olfr107,inactive: 1.75
15,GGAGAAAACCAUCUUGGUUTT against Olfr284,inactive: 0.105
16,CCCAUCUUCAGAUUGUGCATT against Gabrg3,inactive: 0.575
17,GCUGUGUGCCACUUUAUGUTT against Ebna1bp2,inactive: 0.583
18,GGAAAAGGAAAAGAAGAAGTT against Brd3,inactive: -0.00641
19,CCUUUAGAGUUUGAUCUGCTT against Cebpg,inactive: -0.0789
20,GGUUGAAUCUGUAAACAUGTT against Ercc6,inactive: 1.21
21,GGAUGUGGCUGAAUCUCUGTT against Zkscan14,inactive: -0.873
22,GGCACAGAAGAAUGAGAGATT against Schip1,inactive: 0.217

# Some of the entries so far, with bars between the fields.
row | Sequence | z-score
1 | GGUCUCAGAGCUACAUCCCTT against Plekha2 | inactive: -0.206
2 | CCAAAGACAUCUCACACAGTT against Tgfb1 | inactive: -1.2
3 | GGACGUACUCCGGAGCUUUTT against Mal2 | inactive: 1.65
4 | GUAUUUCCAGUAUUACUUGTT against AI467606 | inactive: -0.0923
5 | GGUGGAUAAAGCUUAAAUATT against V1rg10 | inactive: -0.258

# Next part.

row,Sequence,z-score
1,GGCCAUGGAGAUCAUGUUATT against Svopl,inactive: -0.554
2,CCGUCCUGCAUCGGAUUUATT against Ppp2r5a,inactive: 0.801
3,GCGCAUCCGUGUGAAAUUCTT against Timm21,inactive: -1.1
4,GGGAGCCACAUACAAAUACTT against Noc4l,inactive: 1.02
5,GGACAAUUAACGAUCCCACTT against Pdxp,active: -2.58
6,GGUAUAUAACAACCUGUAUTT against Ttc29,inactive: -1.43
7,CCCAAUUGUAGAGUCAUGGTT against Rab43,inactive: -0.261
8,GCACCUUUGAGUGCAACAUTT against Rnf185,active: -2.37
9,AAAGAUGAGAGAAGAACUCTT against Bud31,inactive: 0.253
10,GGCUGCAUCCAAAACAGAATT against Ubash3b,inactive: -0.964
11,GGACCUUUCUGAAGUCCAATT against Ahsp,inactive: -0.0978
12,GGAUUCUGAACCUUACAGATT against Hoxd9,inactive: 1.61
13,GGAAGUUGUACGGACAGACTT against Nr4a1,inactive: -1.09
14,GCCAUGUUCAAAUUGACGGTT against Pi4ka,inactive: 1.57
15,GGACAUCUUAAGAUCUUUGTT against Dipk2b,inactive: -1.11
16,GGGAGUCUCUUUGACAAUGTT against Vps26c,inactive: 1.28
17,GGUUAAGACUCACGACCUGTT against 1700092C17Rik,inactive: -0.933
18,GGAAAAUUCAGGAAGUUUGTT against Magi3,inactive: 0.489
19,GACUGCUUCCUUCUGACUGTT against Olfr399,inactive: -0.575
20,GGAAUUCUUAGCCAAUGCCTT against Gas2l1,inactive: 0.396
21,GGCAGAAUUUGAGCACUUUTT against B4galnt2,active: -2
22,GGAUCCUAACUAUAUUCUCTT against Pdyn,inactive: -0.0327

# Looked up one by one from the list above:
row,Sequence,z-score
11,GCCGGAUAGACCAAUUGGATT against Nlk,inactive: -0.27
12,GGAUUCUGAACCUUACAGATT against Hoxd9,inactive: 1.61

# Continuation.

row,Sequence,z-score
1,GGCGGAGGAAAUUUCUGGATT against Creb5,inactive: -0.388
2,CGUGAAGAUCGAACAGGACTT against Wfs1,inactive: 1.12
3,GCAAGACUGAGAGAAUUGGTT against Pi16,inactive: -0.00781
4,GGAUCUUCAAGGUUAACCATT against Prmt7,inactive: 1.18
5,GCUCAAAGUUUGAACUGGCTT against Atxn2l,inactive: 0.153
6,GCUUUCAGGGAAACUUGCCTT against Ky,inactive: 0.129
7,GGAUUACGAAAAUCAUGGUTT against Polr3e,inactive: -1.77
8,GGUAAAAGAGGCAAUUACGTT against Olfr1497,inactive: 0.591
9,CGCUGCUUUUCCUAGCAGATT against Orai1,inactive: 0.194
10,CGAACGUGCCAACUUACUATT against Gpd2,inactive: -0.517
11,CCACUUUCUGUUGCACUCUTT against Slc25a23,inactive: 0.41
12,GGCCUUGAAAGCCAUUGGUTT against Kmo,inactive: -0.728
13,GGUUACCAACCUUCUCAUGTT against Ptbp1,inactive: -0.778
14,GGAAUUAUCUUCAUCCCUGTT against Abhd10,active: -4.79
15,GGAAAAACUACUCAAGGAGTT against Evi5l,inactive: -0.0731
16,GUUCCCUGCCUGGCAGAAUTT against Foxd2,active: 3.8
17,GGGUGAGUUCUUAAGCUCATT against Ndufb2,inactive: -1.06
18,GGUGGAACAGUGGAAUUCGTT against Grhpr,active: 2.41
19,GGUGUUUGUGACUCUGGGUTT against Mc4r,active: 2.77
20,GGACCUGCACUUAAUGUUUTT against Gabarap,inactive: 0.614
21,GGUACUGGAAGAGGAGGUATT against Ppil3,inactive: -0.507
22,CCAGACCUGCGCUUUUUUGTT against Myod1,inactive: -0.00348

row,Sequence,z-score
1,CCUCCAGUUACGAUGGAGATT against Wdr95,inactive: 1.14
2,CGGAUUCAUUCGGAUGUGCTT against Rln1,inactive: -0.308
3,GGUCAGCAAAGAAAUCUUCTT against Exosc5,inactive: -0.354
4,GGAAUAACAGCCUUGUAUUTT against Slc25a15,inactive: -0.145
5,GGCCAGCAAUAAAACUGUCTT against Max,inactive: -0.326
6,CCAGGUCUUAAUUACAGAGTT against Capza1,inactive: -0.0949
7,GGCCUGCUACUUUUGAUGCTT against Olfr166,inactive: 0.0524
8,GGUGAAAUGUCUUAUAACATT against Efcab1,inactive: 0.52
9,GGAAGUUCGUGGAAGGCAATT against Pck1,inactive: 0.188
10,GGAAGAUGCCUACUUCAGATT against 4632433K11Rik,active: 2.5
11,GGCAGCAGUUAAUUUACUUTT against Mmp21,inactive: -1.71
12,GCGUAUGCCAAGGAACUCATT against 1110051M20Rik,inactive: 0.7
13,GGAUUCACUGUUUUAUUCUTT against Fap,inactive: 0.282
14,GCCUGGUGGAAUAAGAAUUTT against Derl2,inactive: 0.023
15,CCGAUUGUAUUUCUAUAAGTT against Klf2,inactive: 0.571
16,GGCUUUGUUGACCACUCAGTT against Ndst2,inactive: -1.33
17,CGGAUUCUAAAUGCUGUAATT against Aox3,inactive: 0.382
18,GGACUUGGAGCUGAAAUUGTT against Sae1,inactive: -0.0224
19,GGCAGCUCAGGAAAAUAAATT against Htr4,inactive: -0.862
20,GCUAAUAAAGCAUUCAGCATT against Bivm,inactive: -1.31
21,GGCAACCAGUCUCAUCAAUTT against Scgb1b27,inactive: -0.927
22,GGUGCUAAAGGACAUAGGUTT against Tmem177,active: 3.27

# Look-ups from the results shown.
# Entry for GGCAGCUCAGGAAAAUAAATT against Htr4 under z-score: inactive: -0.862
# Entry for CGGAUUCAUUCGGAUGUGCTT against Rln1 under z-score: inactive: -0.308

# (cont.)

row,Sequence,z-score
1,GGAUGAAGAGAAAGAGGAATT against Zfpm1,inactive: 0.436
2,GGAACUGAGUAGUCUGAAGTT against Ap4e1,inactive: 0.523
3,GGACUGAAGCUGAAUUCCUTT against 0610012G03Rik,inactive: -1.77
4,GGCUAACAUGGUUUUAUAUTT against Cldn1,inactive: -0.356
5,GCUCUACGUUGAAGAGCGATT against Mad2l2,inactive: -0.232
6,CCAAACCCAGUUGCAUUUGTT against Slitrk5,inactive: 0.499
7,GCUUAUUCGGGAUAAAGUATT against Elavl1,inactive: 0.101
8,GCUAGCGGCAGUAUUCUGUTT against Rab7,inactive: 0.45
9,GCUCUAUUUUUUCAUCUCCTT against Olfr1415,inactive: -1.03
10,CCAGAGUUUUCGAGGCCAATT against Olfr1349,inactive: 0.127
11,GGCCUUUAGCACCUACAGCTT against Olfr952,inactive: -0.198
12,CGGUAUAUAGAUCACUUCUTT against Olfr56,inactive: 0.276
13,GCAUCGAUGGACUCUUUAUTT against Fbxo40,inactive: -1.97
14,CGCAUGUUCAUAGGACUGCTT against Olfr1420,inactive: 0.453
15,GCUGAAAAUUCCUUCCCGATT against Aff4,inactive: -1.54
16,GGCUAAAGACCAGUAUUUGTT against Cdh7,active: 2.47
17,GGAAUCAAAGGAACAGAGATT against Dscaml1,inactive: -0.0266
18,GGAUGAGCUAAUAGCUAAGTT against Mettl14,inactive: 1.14
19,GCUAAAUCAGCGUAUGAUGTT against Ces4a,inactive: 0.512
